# Results from article PMC12040169 (PLOS Biology, 2025).
# This is one part of the list.
# System: T1, CTL2-GFP (C. trachomatis L2/434/Bu, GFP-expressing)
# T1 construct: L2/434/Bu, GFP-expressing
# Parameters: species or system HeLa; Intracellular C. trachomatis growth in HeLa cells, bulk GFP fluorescence relative to DMSO
# Conditions: bulk GFP, single well; 28.5 h, 10 µM; inhibitor
row,SMILES,% of control remaining
1,CN(C)C1CCN(C(=O)c2ccc(-c3cnc(OCC4CCN(C(=O)OC(C)(C)C)CC4)nc3)cc2)C1 (stereo not shown) [CBK169767],129.99%
2,CC(C)(C)Oc1nc(=O)[nH]c(=O)[nH]1 [CBK007194],110.097%
3,CN(C)CCn1nc(-c2cccc(-n3cccc3)c2)oc1=O [CBK284002],112.623%
4,COc1cc(/C=N\NC(=O)CSc2nc3ccccc3o2)ccc1O [CBK263630],132.333%
5,Cc1nn(CC(=O)N2CCN(Cc3ccccn3)CC2)c(C)c1Cl [CBK305978],90.262%
6,Cc1c(C(=O)N2CCC[C@H]2[C@H](O)c2nccs2)oc2ccccc12 [CBK284281],68.9465%
7,CCN(CCO)c1ccc(Nc2cc(-c3cc(C(F)(F)F)cc(C(F)(F)F)c3)ncn2)cc1 [CBK090994],173.706%
8,CCCc1nn(CC(=O)N(C)C)c(=O)c2cc3ccsc3n12 [CBK284193],83.0975%
9,O=C(O)c1cccc(-n2ncc(-c3ccccc3C(F)(F)F)n2)c1 [CBK112721],87.5212%
10,CC1CCc2c(sc(NC(=O)c3ccccc3)c2CN2CCCC2)C1 (stereo not shown) [CBK265908],157.679%
11,CCOC(=O)c1cccc(-n2cc(-c3ccc(Br)cc3F)nn2)c1 [CBK113153],105.188%
12,Oc1cc(C(F)(F)F)nc(NCc2cccc3ccccc23)n1 [CBK003716],76.5662%
13,CCOC(=O)CN1CCN(S(=O)(=O)c2ccc(F)c(Cl)c2)CC1 [CBK043782],127.804%
14,CS(=O)(=O)N(CC(=O)Nc1ccccc1-c1ccccc1)c1ccc(F)c(Cl)c1 [CBK268539],89.1961%
15,COc1ccc(C(C)C)cc1-c1cncc(Nc2ccc(Cl)cc2)n1 [CBK065285],118.727%
16,Cc1cc(NC(=O)CSc2nc(-c3ccc(F)cc3)cc(C(F)(F)F)n2)n(-c2ccccc2)n1 [CBK266248],193.668%
17,CC1CCN(Cc2ccc(-c3nnn(CC(=O)NCc4ccc(S(N)(=O)=O)cc4)n3)cc2)CC1 [CBK144141C],99.7265%
18,O=C(N[C@H]1CO[C@H]2[C@@H]1OC[C@@H]2Nc1nccc(-c2cccc(F)c2)n1)C1CC1 [CBK289535],96.5656%
19,Cc1cccc(C(=O)Nc2c(C(=O)Nc3ccc(Br)cc3)cnn2-c2ccccc2)c1 [CBK264839],78.8669%
20,Cc1nonc1/N=N/N(CC(=O)N1CCOCC1)c1nonc1C [CBK262399],116.213%
21,O=C(CSc1nncc(=O)[nH]1)NCc1ccccc1 [CBK270246],139.951%
22,CCOC(=O)N(C)c1c(CC)nc2c(OCC(=O)C(C)(C)C)cccn12 [CBK147382],107.415%
23,COCc1nc2ccccc2n1CC(=O)N1CCC(c2ccccc2)C1 (stereo not shown) [CBK282211],120.916%
24,S=C(Nc1ccccc1)N1CCCCC1CN1CCCCC1 (stereo not shown) [CBK006196],82.0382%
25,O=C(NCCN1CCOCC1)NCC12CC3CC(C1)CC(c1ccccc1)(C3)C2 [CBK268388],116.662%
26,Cn1nc(C2CCN(C(=O)CCc3ccccc3)CC2)c2cccnc21 [CBK285050],113.614%

row,SMILES,% of control remaining
1,CC(=O)c1cccc(NC(=O)Nc2ccc(S(=O)(=O)Nc3cc(C)on3)cc2)c1 [CBK299794],38.4293%
2,CN1C[C@@H](NS(C)(=O)=O)C[C@H]1c1nc(-c2ccc3c(c2)OCO3)no1 [CBK288875],116.238%
3,O=S(=O)(Nc1cccnc1N1CCOCC1)c1ccc(F)cc1 [CBK051009],75.5261%
4,CCn1ncc(CN2CCCCCC2c2cc(C)on2)c1C (stereo not shown) [CBK282141],142.739%
5,CCc1noc(C)c1C(=O)N1CC(C(=O)N2CCN(c3ccccc3)CC2)C1 [CBK285667],124.678%
6,O=c1[nH]c(=O)c2cc(S(=O)(=O)NC3CCN(Cc4ccccc4)C3)ccc2[nH]1 (stereo not shown) [CBK286380],109.06%
7,CCc1nc2c(OCCCN(C)S(C)(=O)=O)cccn2c1N(C)C(=O)c1ccco1 [CBK147435],119.231%
8,CC(CN1CCN(Cc2ccccc2)CC1)N(C(=O)c1ccoc1)c1ccccn1 (stereo not shown) [CBK074861C],114.506%
9,CCn1c(SCc2cc(C)no2)nnc1C1CC1 [CBK297758],142.838%
10,O=S(=O)(NCc1ccccc1)c1cccc(S(=O)(=O)NCc2ccccc2)c1 [CBK263250],121.273%
11,CCN(Cc1ccccc1)C(=O)NCCc1c[nH]c2ccc(OC)cc12 [CBK155226],100.997%
12,COc1ccc(OCC(O)CN2CCN(c3ccccn3)CC2)cc1 (stereo not shown) [CBK278239C],100%
13,CC(=O)Nc1ccc(-c2cncc(Nc3ccc(F)c(Cl)c3)n2)cc1 [CBK065765],213.64%
14,CCS(=O)(=O)NC1CC(C)(C)Cc2c1cnn2-c1ccc(OC)cc1 (stereo not shown) [CBK306656],108.673%
15,c1csc(CNc2nccnc2-c2cccs2)c1 [CBK036602],92.7079%
16,O=C(Cc1noc2ccccc12)Nc1ccc(N2CCCS2(=O)=O)cc1 [CBK304521],97.9146%
17,O=[N+]([O-])c1ccc(CN2CCN(Cc3ccc4c(c3)OCO4)CC2)o1 [CBK074557],105.902%
18,O=C(c1cccc2[nH]ccc12)N1CCCC2(CCN(Cc3ccccc3)C2)C1 (stereo not shown) [CBK136887],157.125%
19,CN(CC(=O)Nc1ccc(Cl)c(C(F)(F)F)c1)C(=O)c1cc(O)nc2ccccc12 [CBK295304],85.6407%
20,Cc1cc(C(=O)COc2cccc(-n3cnnn3)c2)c(C)n1C(C)c1ccccc1 (stereo not shown) [CBK295643],101.658%
21,O=C(Cc1ccc(Cl)cc1Cl)Nc1ccc(-c2nnc3n2CCCCC3)cc1 [CBK296949],151.476%
22,COc1ccc(-n2ncc3c2CCCN(C(=O)C2CC2)C3)cc1 [CBK284498],126.848%
23,CCCN(CCC)C(=O)c1nc(C)c(C(=O)N(CCC)CCC)nc1C [CBK023232],158.452%
24,CCOC(=O)C1CCN(Cn2nc(O)ccc2=O)CC1 [CBK263331],117.662%
25,O=C(c1ccoc1)N1CCC2(CCCN(Cc3cc(=O)[nH]c(=O)[nH]3)C2)C1 (stereo not shown) [CBK132823],148.246%
26,COc1ccc(OC(=O)C2CCN(C(=O)CC(C)C)CC2)c([N+](=O)[O-])c1 [CBK154770],106.217%

# Some of the entries above, reformatted:
row	SMILES	% of control remaining
1	CC(=O)c1cccc(NC(=O)Nc2ccc(S(=O)(=O)Nc3cc(C)on3)cc2)c1 [CBK299794]	38.4293%
2	CN1C[C@@H](NS(C)(=O)=O)C[C@H]1c1nc(-c2ccc3c(c2)OCO3)no1 [CBK288875]	116.238%
3	O=S(=O)(Nc1cccnc1N1CCOCC1)c1ccc(F)cc1 [CBK051009]	75.5261%
4	CCn1ncc(CN2CCCCCC2c2cc(C)on2)c1C (stereo not shown) [CBK282141]	142.739%

# Further records follow.

row,SMILES,% of control remaining
1,CNC(=O)c1cccc(NC(=O)c2cc(-c3cccnc3)cnc2NCc2ccc3c(c2)OCO3)c1 [CBK076291],101.529%
2,COC(=O)c1cc(OC)c(OC)cc1NC(=S)N1CCC(C(N)=O)CC1 [CBK268507],140.047%
3,O=C(c1ccc2[nH]c(=O)[nH]c2c1)N1CCC2(CCNC2)C1 (stereo not shown) [CBK156747C],116.321%
4,CS(=O)(=O)c1ccc(CN2CCOC3(CCN(C(=O)c4ccc5ccccc5c4)CC3)C2)cc1 [CBK161122A],82.6077%
5,CC1Cc2cc(-c3cc4ccccn4c3)ccc2N1S(C)(=O)=O (stereo not shown) [CBK285227],127.438%
6,COc1cccc(C(=O)NCCC(=O)N2CCCC(c3ncc[nH]3)C2)c1 (stereo not shown) [CBK306864],120.354%
7,CCOC(=O)c1[nH]c2ccccc2c1NS(=O)(=O)c1ccc(C)c([N+](=O)[O-])c1 [CBK047427],121.402%
8,CCOCCn1c(CN2CCCCC2)nc2c1c(=O)n(C)c(=O)n2C [CBK306028],153.507%
9,CC(=O)NCC1OCCc2ccccc21 (stereo not shown) [CBK026449],114.989%
10,CC(C)(c1noc(C2CCOCC2)n1)S(=O)(=O)c1ccc(Br)cc1 [CBK305543],103.506%
11,Cc1c(CNC(=O)c2cc(-c3ccncc3)nc3ccc(Cl)cc23)cnn1C [CBK288627],111.292%
12,N#CCCn1cc(C(=O)N2CCOCC2)c(-c2ccccc2)n1 [CBK306207],140.022%
13,CNS(=O)(=O)c1cccc(C(C)NC(=O)N2CCC2)c1 (stereo not shown) [CBK306257],167.944%
14,Oc1ccc(Br)cc1/C=N/c1ccc(-c2cc(-c3ccc(/N=C/c4cc(Br)ccc4O)cc3)ncn2)cc1 [CBK261630],109.173%
15,Fc1ccc(-n2cc(-c3cccnc3)nn2)cc1F [CBK113055],129.905%
16,Cn1nc(-c2ccc(Cl)cc2)cc1NC(=O)Cn1nnc(-c2ccc(F)cc2)n1 [CBK295203],144.228%
17,COc1ccc(CNC(=O)NC(=O)C2CCN(CCCc3ccc4c(c3)OCO4)CC2)c(OC)c1 [CBK034875],102.349%
18,Cn1nccc1CNCc1c(Br)cc(F)c(F)c1N1CCCCC1 [CBK306284],112.21%
19,Nc1ncc(-c2ccncc2)nc1NCC1CCOCC1 [CBK063816],170.139%
20,Cc1ccc(S(=O)(=O)N2CCN(CC(O)COc3ccc4ccccc4c3Cl)CC2)c(C)c1 (stereo not shown) [CBK266563],126.944%
21,Cc1nc(C)c(C(=O)NC2Cc3ccccc3C2)s1 [CBK200357],104.086%
22,Cc1nn(-c2nc3ccccc3s2)c(O)c1C [CBK270254],135.22%
23,CN(Cc1cn(-c2ccccc2)nc1-c1ccccc1)C(=O)CCc1n[nH]c(=S)[nH]c1=O [CBK295630],142.548%
24,COCCNc1nccnc1-c1ccccc1CO [CBK038010],101.636%
